For one molecule, binding results are on record in PMC3369947.

These are yes or no findings as the source states them, for the method shown. In cells and extracts the contact can be indirect. Some entries that bind do so weakly or less than the wild type. Where a sequence is shown, tags or fusion partners need not be part of it.

The target in assay [1] is T1, HA-tagged Mum2 (S. cerevisiae) (UniProt P38236).
T1 sequence: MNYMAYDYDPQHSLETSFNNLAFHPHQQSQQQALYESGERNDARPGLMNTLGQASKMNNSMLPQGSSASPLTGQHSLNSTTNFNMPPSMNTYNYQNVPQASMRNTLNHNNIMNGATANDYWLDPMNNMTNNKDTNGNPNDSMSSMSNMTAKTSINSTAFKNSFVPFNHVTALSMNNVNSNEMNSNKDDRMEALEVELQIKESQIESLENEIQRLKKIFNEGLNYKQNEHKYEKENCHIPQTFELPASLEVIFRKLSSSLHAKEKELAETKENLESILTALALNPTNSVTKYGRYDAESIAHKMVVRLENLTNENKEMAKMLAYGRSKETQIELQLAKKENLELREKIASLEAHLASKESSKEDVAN
Kind of assay: co-IP; extracts of meiotic culture 3 hours after meiotic induction; lysis buffer 150 mM NaCl, 50 mM Tris pH 7.5, 1% NP40; HA-conjugated agarose beads, three hours; Western with anti-myc; myc-Ime4 strain without HA-tags as control.

In assay [2] the target is T2, HA-tagged Slz1 (S. cerevisiae) (UniProt P40167).
T2 sequence: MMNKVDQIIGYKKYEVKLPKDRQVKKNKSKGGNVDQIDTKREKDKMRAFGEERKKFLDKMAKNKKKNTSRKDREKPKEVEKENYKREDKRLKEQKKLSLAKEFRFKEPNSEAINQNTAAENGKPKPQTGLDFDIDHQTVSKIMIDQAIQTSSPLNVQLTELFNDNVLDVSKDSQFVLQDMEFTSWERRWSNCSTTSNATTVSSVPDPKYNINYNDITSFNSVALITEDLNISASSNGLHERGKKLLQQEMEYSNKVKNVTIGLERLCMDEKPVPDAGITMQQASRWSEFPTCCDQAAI
Described as above.

B1: myc-tagged Ime4 (enzyme, UniProt P41833 1-600)
chain: MINDKLVHFLIQNYDDILRAPLSGQLKDVYSLYISGGYDDEMQKLRNDKDEVLQFEQFWNDLQDIIFATPQSIQFDQNLLVADRPEKIVYLDVFSLKILYNKFHAFYYTLKSSSSSCEEKVSSLTTKPEADSEKDQLLGRLLGVLNWDVNVSNQGLPREQLSNRLQNLLREKPSSFQLAKERAKYTTEVIEYIPICSDYSHASLLSTSVYIVNNKIVSLQWSKISACQENHPGLIECIQSKIHFIPNIKPQTDISLGDCSYLDTCHKLNTCRYIHYLQYIPSCLQERADRETASENKRIRSNVSIPFYTLGNCSAHCIKKALPAQWIRCDVRKFDFRVLGKFSVVIADPAWNIHMNLPYGTCNDIELLGLPLHELQDEGIIFLWVTGRAIELGKESLNNWGYNVINEVSWIKTNQLGRTIVTGRTGHWLNHSKEHLLVGLKGNPKWINKHIDVDLIVSMTRETSRKPDELYGIAERLAGTHARKLEIFGRDHNTRPGWFTIGNQLTGNCIYEMDVERKYQEFMKSKTGTSHTGTKKIDKKQPSKLQQQHQQQYWNNMDMGSGKYYAEAKQNPMNQKHTPFESKQQQKQQFQTLNNLYFAQ
Consider B1, for which the binding result in assay [1] and in assay [2] was “binds” each time.
